No constants are given. Whether binding was seen depends on the method and setting. Some binding calls cover weakened binding; strength is not graded here.
Target: Ube2W V30K/D67K/C91K (UniProt Q96B02)
Assay: X-ray crystal structure of the complex

Chains of the proteins cited; added tags and fusions are not shown. Lines headed by an entry give the natural chain unless they say otherwise; changes in a name come on top. A line that says so, or that is headed by a name, gives the form on record, which may keep a tag or linker.
Ube2W V30K/D67K/C91K (Q96B02, form named): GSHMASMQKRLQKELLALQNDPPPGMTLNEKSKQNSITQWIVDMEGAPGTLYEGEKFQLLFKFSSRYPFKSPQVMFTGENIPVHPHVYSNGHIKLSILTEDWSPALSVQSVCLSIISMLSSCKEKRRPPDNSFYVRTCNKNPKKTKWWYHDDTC
UniProt P19474: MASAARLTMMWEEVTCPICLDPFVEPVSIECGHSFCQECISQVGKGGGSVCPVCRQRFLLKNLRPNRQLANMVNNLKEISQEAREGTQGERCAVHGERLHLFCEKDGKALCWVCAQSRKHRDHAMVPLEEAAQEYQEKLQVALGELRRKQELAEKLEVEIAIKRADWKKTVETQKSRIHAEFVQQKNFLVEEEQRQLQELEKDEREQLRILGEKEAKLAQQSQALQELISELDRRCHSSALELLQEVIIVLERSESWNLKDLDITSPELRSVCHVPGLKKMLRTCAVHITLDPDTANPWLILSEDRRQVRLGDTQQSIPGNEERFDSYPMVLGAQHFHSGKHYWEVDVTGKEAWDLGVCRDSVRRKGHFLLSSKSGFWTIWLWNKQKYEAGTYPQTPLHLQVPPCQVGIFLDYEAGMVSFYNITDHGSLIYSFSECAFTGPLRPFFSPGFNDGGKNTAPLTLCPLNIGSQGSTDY

TRIM21 RING domain (from UniProt P19474 1-85) (enzyme)
binding: binds
